Test results as given in patent publication US20240341337A1, “METHOD FOR CREATING MASKING COMPOSITIONS” (GIVAUDAN SA, priority 2021, published 2024).

Test: GC-O analysis of pea protein isolate to identify key off-notes
Settings: pea protein isolate Pisane C9, GC-O

| Structure (SMILES) | Descriptors (off-note odor) |
| --- | --- |
| COc1nccnc1C(C)C [Ex. A, propyl-iso-2 methoxy-3-pyrazine] | Pea-like |
| COc1nccnc1CC(C)C [Ex. B, isobutyl-3-methoxy-2-pyrazine] | Earthy green |
| CCCC/C=C/C=O [Ex. C, heptenal-2-trans] | Cardboardy |
| CC/C=C\CCC=O [Ex. D, heptenal-4-cis] | Vegetal |
| CCCCCCO [Ex. E, hexanol] | Soapy |
